Results are given in words; binding and its absence hold for the method and conditions named. In cells and extracts the contact can be indirect. Some results given as binding are weak or reduced against the parent protein; the word gives no strength.
Target: HA-human MLL1N truncated protein (HA-MLL1N_(1-1395)) (human) (UniProt Q03164)
Assay: co-IP; anti-HA antibody or control IgG on HEK293T cells transfected with HA-MLL1N_(1-1395); cells treated with DMSO or DS-1594a·succinate (10, 30, 100, 300, 1000 nM); endogenous Menin detected

Amino acid sequences for entries named in this document (tags omitted). Residues count along the entry.
UniProt Q03164, residues 1-1395: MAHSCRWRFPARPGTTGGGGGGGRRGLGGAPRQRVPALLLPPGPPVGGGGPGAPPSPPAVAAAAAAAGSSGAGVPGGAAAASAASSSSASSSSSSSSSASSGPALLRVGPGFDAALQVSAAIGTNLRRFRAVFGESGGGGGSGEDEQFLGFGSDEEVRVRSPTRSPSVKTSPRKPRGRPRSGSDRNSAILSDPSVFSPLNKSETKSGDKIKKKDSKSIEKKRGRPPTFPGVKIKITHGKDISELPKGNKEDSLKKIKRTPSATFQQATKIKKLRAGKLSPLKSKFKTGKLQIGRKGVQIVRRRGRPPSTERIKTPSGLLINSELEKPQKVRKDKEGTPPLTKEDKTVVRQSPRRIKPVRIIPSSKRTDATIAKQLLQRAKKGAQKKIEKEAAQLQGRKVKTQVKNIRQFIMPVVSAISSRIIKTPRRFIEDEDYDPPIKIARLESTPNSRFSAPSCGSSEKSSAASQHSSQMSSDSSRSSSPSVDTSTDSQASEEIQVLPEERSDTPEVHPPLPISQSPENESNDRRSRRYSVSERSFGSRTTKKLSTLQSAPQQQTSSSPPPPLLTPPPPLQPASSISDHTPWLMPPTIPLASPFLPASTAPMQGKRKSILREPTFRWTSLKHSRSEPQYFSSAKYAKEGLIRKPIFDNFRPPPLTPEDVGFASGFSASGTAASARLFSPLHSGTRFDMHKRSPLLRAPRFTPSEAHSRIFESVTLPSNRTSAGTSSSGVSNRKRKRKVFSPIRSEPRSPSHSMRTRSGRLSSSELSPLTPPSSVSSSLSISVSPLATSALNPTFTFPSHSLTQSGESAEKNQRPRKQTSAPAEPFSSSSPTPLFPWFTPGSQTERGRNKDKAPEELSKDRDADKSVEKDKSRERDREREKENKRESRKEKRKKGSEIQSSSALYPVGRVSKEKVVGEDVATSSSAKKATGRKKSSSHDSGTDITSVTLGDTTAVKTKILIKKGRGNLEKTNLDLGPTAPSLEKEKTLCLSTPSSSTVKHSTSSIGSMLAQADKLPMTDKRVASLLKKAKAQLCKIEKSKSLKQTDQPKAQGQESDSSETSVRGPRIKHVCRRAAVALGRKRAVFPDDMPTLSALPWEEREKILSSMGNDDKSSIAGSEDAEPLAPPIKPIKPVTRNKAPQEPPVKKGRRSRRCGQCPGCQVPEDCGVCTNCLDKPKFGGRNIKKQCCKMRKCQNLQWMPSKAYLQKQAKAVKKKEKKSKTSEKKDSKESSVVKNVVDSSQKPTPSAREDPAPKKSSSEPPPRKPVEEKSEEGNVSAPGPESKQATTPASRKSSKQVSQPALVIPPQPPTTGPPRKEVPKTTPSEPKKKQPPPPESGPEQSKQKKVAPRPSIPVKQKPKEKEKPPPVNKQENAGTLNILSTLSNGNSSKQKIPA

binding: binds
B1: endogenous Menin protein (protein, UniProt O00255 1-610)
chain: MGLKAAQKTLFPLRSIDDVVRLFAAELGREEPDLVLLSLVLGFVEHFLAVNRVIPTNVPELTFQPSPAPDPPGGLTYFPVADLSIIAALYARFTAQIRGAVDLSLYPREGGVSSRELVKKVSDVIWNSLSRSYFKDRAHIQSLFSFITGTKLDSSGVAFAVVGACQALGLRDVHLALSEDHAWVVFGPNGEQTAEVTWHGKGNEDRRGQTVNAGVAERSWLYLKGSYMRCDRKMEVAFMVCAINPSIDLHTDSLELLQLQQKLLWLLYDLGHLERYPMALGNLADLEELEPTPGRPDPLTLYHKGIASAKTYYRDEHIYPYMYLAGYHCRNRNVREALQAWADTATVIQDYNYCREDEEIYKEFFEVANDVIPNLLKEAASLLEAGEERPGEQSQGTQSQGSALQDPECFAHLLRFYDGICKWEEGSPTPVLHVGWATFLVQSLGRFEGQVRQKVRIVSREAEAAEAEEPWGEEAREGRRRGPRRESKPEEPPPPKKPALDKGLGTGQGAVSGPPRKPPGTVAGTARGPEGGSTAQVPAPTASPPPEGPVLTFQSEKMKGMKELLVATKINSSAIKLQLTAQSQVQMKKQKVSTPSDYTLSFLKRQRKGL

Source: paper PMC9960487, “A novel Menin-MLL1 inhibitor, DS-1594a, prevents the progression of acute leukemia with rearranged MLL1 or mutated NPM1” (Cancer Cell International, 2023)
